Reference: article PMC3709506
No constants are given. Whether binding was seen depends on the method and setting. Binding calls can cover weak binding; strength is not graded here.

By UniProt entry, the sequences of proteins in these tests, tags left out. Where a name states a change or a piece, a line headed by the entry shows the natural chain unless it says otherwise.
UniProt P06453: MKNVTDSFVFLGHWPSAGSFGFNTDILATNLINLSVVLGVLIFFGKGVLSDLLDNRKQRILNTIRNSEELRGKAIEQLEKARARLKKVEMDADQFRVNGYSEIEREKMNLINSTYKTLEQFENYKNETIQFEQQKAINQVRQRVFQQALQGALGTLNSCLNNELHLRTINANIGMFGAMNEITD

Target: T1, cATPase subunit II, dephosphorylated enzyme (Spinacia oleracea) (UniProt P31853)
T1 sequence: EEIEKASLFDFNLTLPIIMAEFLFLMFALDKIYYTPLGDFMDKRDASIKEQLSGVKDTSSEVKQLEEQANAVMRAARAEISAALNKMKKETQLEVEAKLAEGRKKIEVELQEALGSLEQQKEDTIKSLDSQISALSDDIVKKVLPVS
Assay: cross-linking; comparative: dephosphorylated cATPase (calf intestinal alkaline phosphatase, 37 °C) cross-linked with 2.5 mM deuterated BS3, untreated cATPase with non-deuterated BS3, pooled; areas of extracted ion chromatograms of heavy and light cross-links compared; both purified

binding: binds
Substance: chloroplast ATP synthase (cATPase) subunit I (from UniProt P06453)
